Laboratory results as given in US8653049B2, “Normuramyl glycopeptide compounds” (priority 2008, dated 2014).

System: Trichophyton mentagrophytes TM 179
Experiment: Adjuvant activity for hsp60 DNA vaccine against ringworm
Assay type: in vivo, guinea pigs
Conditions: skin lesion sample day 8

Measured: Results of cultivation Day 13

CCCCCCCCCCCCCCC(CCCCCCCCCCCCCC)C(=O)OC[C@H]1OC(O)[C@H](NC(C)=O)[C@@H](OCC(=O)N[C@@H](CC)C(=O)N[C@H](CCC(=O)O)C(N)=O)[C@@H]1O (stereo partly shown) [B30-norAbu-MDP]
Positive: group 1: 200 μg adjuvant at −48 h + 20 μg DNA | group 2: 200 μg adjuvant at −24 h + 20 μg DNA | group 3: 200 μg adjuvant at 0 h + 20 μg DNA | group 4: 200 μg adjuvant at +24 h + 20 μg DNA
